Laboratory results reported in paper PMC5370144.
No constants are given. Whether binding was seen depends on the method and setting. In cells and extracts the contact can be indirect. Some entries that bind do so weakly or less than the wild type.

Amino acid sequences for entries named in this document (tags omitted).
UniProt O55242: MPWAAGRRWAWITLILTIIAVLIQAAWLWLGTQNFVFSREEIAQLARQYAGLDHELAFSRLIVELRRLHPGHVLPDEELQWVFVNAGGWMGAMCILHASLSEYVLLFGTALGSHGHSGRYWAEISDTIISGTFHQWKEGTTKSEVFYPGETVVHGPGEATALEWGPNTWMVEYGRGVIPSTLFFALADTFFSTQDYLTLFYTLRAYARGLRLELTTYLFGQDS

Tests used:
[1] = target: HA-tagged original mouse sigma1 receptor mSIG-1 (mouse) (UniProt O55242); assay: co-IP; competition co-IP: equal amounts of mSIG-1/HA (1.2 μg) and mMOR-1/Flag (1.2 μg) co-transfected in HEK293 with 0, 1.2, 2.4 or 3.6 μg of an untagged Sigmar1 variant; IP with EZview HA affinity gel, immunoblot with anti-Flag
[2] = target: HA-tagged original mouse sigma1 receptor mSIG-1 (mouse) (UniProt O55242); assay: co-IP; HEK293 cells transiently co-transfected with mMOR-1/Flag and an HA-tagged Sigmar1 variant; whole cells solubilised in PBS pH 7.4, 3 mM CHAPS; IP with EZview Red Anti-HA affinity gel overnight at 4°C, elution with HA peptide, immunoblot with anti-Flag

Flag-tagged mouse mu opioid receptor variant mMOR-1 (from UniProt P42866 1-398)
binding [1]: binds
binding [2]: binds
